Data source: PubChem BioAssay AID1259405 (NCATS, 2018)

Test: 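Knock-downs that lift recombinant protein yield in hamster ovary cells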 (primary screen)
System: Chinese hamster CHO-K1 ovary cells with stable secreted eGFP expression
Reagents: single siRNA against mouse genes, 0.8 pmol siRNA per well (2 µl of 400 nM stock)
Time to read-out: 3 days
Read-out: 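Percent of the per-plate non-targeting control median for intracellular GFP per well by laser scanning cytometry and for cell viability by ATP luminescence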
Direction: GFP, % of control: higher = more GFP per well, higher productivity; viability (ATP), % of control: higher = more viable cells (more ATP)
Hit rule: 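a knock-down is called active if GFP reaches 120% or more of non-targeting control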
Here is a random part of about 50,000 deposited reagents. About 4,000 of them (8%) count as active. 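Mouse siRNA library applied to hamster cells; one well for each siRNA.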 Reagents against one gene are numbered here.

{"target gene": "Or52z14", "reagent": 1, "GFP, % of control": 55.5, "viability (ATP), % of control": 83.3, "activity call": "inactive"}
{"target gene": "Or52z14", "reagent": 2, "GFP, % of control": 69.2, "viability (ATP), % of control": 70.5, "activity call": "inactive"}
{"target gene": "Or52z14", "reagent": 3, "GFP, % of control": 43.7, "viability (ATP), % of control": 91.1, "activity call": "inactive"}
{"target gene": "Bri3", "reagent": 1, "GFP, % of control": 78.4, "viability (ATP), % of control": 73.6, "activity call": "inactive"}
{"target gene": "Bri3", "reagent": 2, "GFP, % of control": 102, "viability (ATP), % of control": 91.9, "activity call": "inactive"}
{"target gene": "Bri3", "reagent": 3, "GFP, % of control": 134, "viability (ATP), % of control": 144, "activity call": "active"}
{"target gene": "Stk4", "reagent": 1, "GFP, % of control": 127, "viability (ATP), % of control": 104, "activity call": "active"}
{"target gene": "Stk4", "reagent": 2, "GFP, % of control": 63.5, "viability (ATP), % of control": 49.6, "activity call": "inactive"}
{"target gene": "Stk4", "reagent": 3, "GFP, % of control": 48.9, "viability (ATP), % of control": 70.1, "activity call": "inactive"}

Records listed so far whose gene name starts with S or s (3):
{"target gene": "Stk4", "reagent": 1, "GFP, % of control": 127, "viability (ATP), % of control": 104, "activity call": "active"}
{"target gene": "Stk4", "reagent": 2, "GFP, % of control": 63.5, "viability (ATP), % of control": 49.6, "activity call": "inactive"}
{"target gene": "Stk4", "reagent": 3, "GFP, % of control": 48.9, "viability (ATP), % of control": 70.1, "activity call": "inactive"}

Further results follow:
{"target gene": "Srrm3", "reagent": 1, "GFP, % of control": 76.4, "viability (ATP), % of control": 56, "activity call": "inactive"}
{"target gene": "Srrm3", "reagent": 2, "GFP, % of control": 85.6, "viability (ATP), % of control": 88.5, "activity call": "inactive"}
{"target gene": "Srrm3", "reagent": 3, "GFP, % of control": 77.6, "viability (ATP), % of control": 73.8, "activity call": "inactive"}
{"target gene": "Prl7a2", "reagent": 1, "GFP, % of control": 31.1, "viability (ATP), % of control": 17.6, "activity call": "inactive"}
{"target gene": "Prl7a2", "reagent": 2, "GFP, % of control": 87, "viability (ATP), % of control": 40.6, "activity call": "inactive"}
{"target gene": "Prl7a2", "reagent": 3, "GFP, % of control": 113, "viability (ATP), % of control": 43.6, "activity call": "inactive"}
{"target gene": "Tjp1", "reagent": 1, "GFP, % of control": 51.8, "viability (ATP), % of control": 58.3, "activity call": "inactive"}
{"target gene": "Tjp1", "reagent": 2, "GFP, % of control": 110, "viability (ATP), % of control": 110, "activity call": "inactive"}
{"target gene": "Tjp1", "reagent": 3, "GFP, % of control": 100, "viability (ATP), % of control": 144, "activity call": "inactive"}
